Source: PubChem BioAssay AID1224826 (NIAID, 2016)

Purpose: 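Regulators of Tlr4 signalling leading to Tnf-alpha expression in macrophages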 (primary screen)
System: RAW264.7 G9 macrophages from mouse bearing reporters for p65 (GFP) and the Tnf promoter (mCherry)
Reagent: siRNA pool against mouse genes, 100 nM
Time to read-out: 16 h of LPS stimulation, after 2 days of siRNA transfection
Conditions: bacterial lipopolysaccharide (Salmonella minnesota R595), 10 ng/ml
Detection: 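Nuclear mCherry signal of the Tnf promoter reporter measured by imaging after background removal, scaled to each plate median and turned into robust z-scores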
Scale: Tnf reporter robust z-score: higher = stronger Tnf promoter reporter signal after LPS
Call rule: 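Called active when robust z-score is at most -1.3, matching the median of the Tlr4 knock-down control, or over 3; control wells and wells with under 50 cells never active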
Meaning of the calls: active = Tnf reporter clearly lowered or raised; inactive = no clear change in Tnf reporter
This is a random part of about 17,000 reagents. About 1,110 of them (6.6%) count as active. 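Active means lowered or raised reporter signal; replicate intensities are raw and not normalised per plate.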 Not all columns of the deposit are shown.

Ly86 (lymphocyte antigen 86) [SID315467788] | Tnf reporter robust z-score = 1.12; fewer than 50 cells in well = enough cells in well; call = inactive
Scamp3 [SID315470293] | Tnf reporter robust z-score = 0.43; fewer than 50 cells in well = enough cells in well; call = inactive
Fkbp1a (FK506 binding protein 1a) [SID315466697] | Tnf reporter robust z-score = -0.44; fewer than 50 cells in well = enough cells in well; call = inactive
Lin37 (lin-37 DREAM MuvB core complex component) [SID315475173] | Tnf reporter robust z-score = 2.03; fewer than 50 cells in well = enough cells in well; call = inactive
Cacnb1 (calcium channel, voltage-dependent, beta 1 subunit) [SID315465715] | Tnf reporter robust z-score = 0.05; fewer than 50 cells in well = enough cells in well; call = inactive
Cript (cysteine-rich PDZ-binding protein) [SID315471655] | fewer than 50 cells in well = fewer than 50 cells per well; well left out of calls; call = inactive
Dhdds (dehydrodolichyl diphosphate synthase) [SID315473013] | Tnf reporter robust z-score = -0.21; fewer than 50 cells in well = enough cells in well; call = inactive
Vps36 (vacuolar protein sorting 36) [SID315473984] | Tnf reporter robust z-score = 3.05; fewer than 50 cells in well = enough cells in well; call = active
Cox7b2 (cytochrome c oxidase subunit 7B2) [SID315475542] | Tnf reporter robust z-score = 2.7; fewer than 50 cells in well = enough cells in well; call = inactive
Stk11 (serine/threonine kinase 11) [SID315469500] | Tnf reporter robust z-score = 0.42; fewer than 50 cells in well = enough cells in well; call = inactive
Evi2a (ecotropic viral integration site 2a) [SID315466580] | Tnf reporter robust z-score = -0.39; fewer than 50 cells in well = enough cells in well; call = inactive
Abcf2 (ATP-binding cassette, sub-family F member 2) [SID315470616] | Tnf reporter robust z-score = 0.91; fewer than 50 cells in well = enough cells in well; call = inactive
Samd13 (sterile alpha motif domain containing 13) [SID315475068] | fewer than 50 cells in well = fewer than 50 cells per well; well left out of calls; call = inactive
Grm3 (glutamate receptor, metabotropic 3) [SID315476678] | Tnf reporter robust z-score = -0.96; fewer than 50 cells in well = enough cells in well; call = inactive
Dtd2 (D-tyrosyl-tRNA deacylase 2) [SID315481462] | fewer than 50 cells in well = fewer than 50 cells per well; well left out of calls; call = inactive
Or8k1 (olfactory receptor family 8 subfamily K member 1) [SID315480240] | Tnf reporter robust z-score = 1.27; fewer than 50 cells in well = enough cells in well; call = inactive
Rarres1 (retinoic acid receptor responder (tazarotene induced) 1) [SID315476803] | Tnf reporter robust z-score = 0.56; fewer than 50 cells in well = enough cells in well; call = inactive
Ahctf1 (AT hook containing transcription factor 1) [SID315478521] | Tnf reporter robust z-score = -0.43; fewer than 50 cells in well = enough cells in well; call = inactive
Ido1 (indoleamine 2,3-dioxygenase 1) [SID315467372] | Tnf reporter robust z-score = 0.96; fewer than 50 cells in well = enough cells in well; call = inactive
Apln (apelin) [SID315470759] | Tnf reporter robust z-score = 0; fewer than 50 cells in well = enough cells in well; call = inactive
Cdk5r2 (cyclin dependent kinase 5, regulatory subunit 2) [SID315465910] | Tnf reporter robust z-score = 0.67; fewer than 50 cells in well = enough cells in well; call = inactive
Itm2a (integral membrane protein 2A) [SID315467533] | Tnf reporter robust z-score = 0.92; fewer than 50 cells in well = enough cells in well; call = inactive
Raet1b (retinoic acid early transcript beta) [SID315468883] | Tnf reporter robust z-score = 2.81; fewer than 50 cells in well = enough cells in well; call = inactive
Obi1 (ORC ubiquitin ligase 1) [SID315474562] | Tnf reporter robust z-score = -0.53; fewer than 50 cells in well = enough cells in well; call = inactive
Max (Max protein) [SID315467843] | Tnf reporter robust z-score = 1.09; fewer than 50 cells in well = enough cells in well; call = inactive
Or5an6 (olfactory receptor family 5 subfamily AN member 6) [SID315480332] | Tnf reporter robust z-score = 0.84; fewer than 50 cells in well = enough cells in well; call = inactive
Cdkn1b (cyclin dependent kinase inhibitor 1B) [SID315465914] | Tnf reporter robust z-score = 3.78; fewer than 50 cells in well = enough cells in well; call = active

Records above whose target name starts with C or c:
Cacnb1 (calcium channel, voltage-dependent, beta 1 subunit) [SID315465715] | Tnf reporter robust z-score = 0.05; fewer than 50 cells in well = enough cells in well; call = inactive
Cript (cysteine-rich PDZ-binding protein) [SID315471655] | fewer than 50 cells in well = fewer than 50 cells per well; well left out of calls; call = inactive
Cox7b2 (cytochrome c oxidase subunit 7B2) [SID315475542] | Tnf reporter robust z-score = 2.7; fewer than 50 cells in well = enough cells in well; call = inactive
Cdk5r2 (cyclin dependent kinase 5, regulatory subunit 2) [SID315465910] | Tnf reporter robust z-score = 0.67; fewer than 50 cells in well = enough cells in well; call = inactive
Cdkn1b (cyclin dependent kinase inhibitor 1B) [SID315465914] | Tnf reporter robust z-score = 3.78; fewer than 50 cells in well = enough cells in well; call = active
